# Measurements published in patent publication US6080780A, “Use of nitroflavonoids for the treatment of anxiety” (University of Strathclyde, priority 1995, dated 2000).
# Like-named read-outs stand apart in the source and are kept apart here. The name of at least one read-out is uncertain.
# Target: type I BDZ-Rs
# Assay: 3H-zolpidem displacement, compound (IV)
# Assay type: binding, rat
# Settings: read-out: displacement of 3H-zolpidem (potency), n=3
compound,measurement,setting,value
"O=c1cc(-c2cccc([N+](=O)[O-])c2)oc2ccc(Br)cc12 [Compound (IV), 6-bromo-3'-nitroflavone]",IC50,cerebellum,3 ± 1 nM
same,IC50,cerebral cortex,3.8 ± 1 nM
